Assay results as given in PubChem BioAssay AID2685 (National Center for Advancing Translational Sciences (NCATS), 2010).
Some of the results follow. The main result of the screen is listed elsewhere. These columns were measured beside it and carry no call. Compounds called inactive in the main read-out are mostly missing here. The note in brackets gives the kind of curve behind each potency; many fits are weak.

Assay: qHTS Assay for Lipid Storage Modulators in Drosophila S3 Cells;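 as to cell number change: cells counted by Cell Tracker Red CMTPX staining in the red channel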
Details: BODIPY lipid droplet fluorescence, 18-24 h; for cell number change: measured here: cell count max response, cells fed with added oleic acid
Outline: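 Laser-scanning cytometry quantifies lipid droplet accumulation (500–530 nm total intensity; droplet/cell object ratio) in oleic acid-fed (400 uM added) Drosophila S3 cells treated with a concentration series. 20 uM Triacsin C defined 100% inhibition.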

[1] = measured here: cell number channel AC50, cells fed with added oleic acid
[2] = measured here: lipid fluorescence (Fed channel) AC50, cells fed with added oleic acid

| Structure (SMILES) | AC50 [1] | cell number change [%] | AC50 [2] |
| --- | --- | --- | --- |
| CC(=O)c1cccc(NC(=O)CC(C)n2ccnc2)c1 (stereo not drawn) | 0.326 µM [rising, full curve, poor fit] |  |  |
| Cc1c(NC(=O)COC(=O)/C=C/c2cccc(Cl)c2)c(=O)n(-c2ccccc2)n1C |  | 0.547 |  |
| CN(C)/C=C/C(=O)c1nnn(C2CCCCC2)c1NC1CCCCC1 | 20.6 µM [falling, single point] | -71.1 |  |
| CCOC(=O)N1CCN(c2c(NCc3ccc(N(C)C)cc3)c(=O)c2=O)CC1 | 0.164 µM [rising, full curve, poor fit] |  | 0.206 µM [rising, full curve, poor fit] |
| Cc1ccccc1NC(=O)C(NS(=O)(=O)c1ccc2c(c1)c(=O)n(C)c(=O)n2C)c1ccccc1 (stereo not drawn) |  | -15.7 | 0.0058 µM [rising, full curve, poor fit] |
| CC(C)(Oc1ccc(Cl)cc1)C(=O)N1CCN(C(=O)c2ccco2)CC1 |  | 16.5 |  |
| CN(C)CCCNc1c2c(nc3ccccc13)CCC2 |  | 2.11 | 0.58 µM [falling, single point] |
| CC(C)CCOc1cccc(OCC(=O)N(C)C2CCS(=O)(=O)C2)c1 (stereo not drawn) |  | 17.4 | 10.3 µM [rising, partial curve] |
| O=C(O)c1cccc(-n2cccc2/C=C2/NC(=O)N(c3ccc(Cl)cc3)C2=O)c1 | 2.06 µM [rising, partial curve, poor fit] | 15.1 |  |
| COc1ccc(/C=C2/SC(=O)N(CC(=O)NCCC(C)C)C2=O)cc1OC | 20.6 µM [falling, single point] | -39.6 |  |
| CCN(C(=O)COC(=O)/C=C/c1c(C)nn(Cc2ccc(C)cc2)c1C)C1CCS(=O)(=O)C1 (stereo not drawn) |  |  | 6.51 µM [rising, partial curve, poor fit] |
| CCn1c(-c2nn(-c3ccccc3)ccc2=O)n[nH]c1=S | 29.1 µM [falling, single point] | -44.7 | 25.9 µM [falling, partial curve] |
| O=C(Nc1c2n(c(=S)n(-c3ccccc3)c1=O)CCCCC2)c1ccccc1 |  |  | 0.103 µM [rising, partial curve, poor fit] |
| CC1(C)Oc2ccc(C(=O)NC3CCCC3)cc2N(CC(=O)NC2CCCC2)C1=O |  |  | 0.461 µM [rising, single point] |
| O=C(CSc1nnc2ccc(-c3cccnc3)nn12)Nc1cccc(F)c1 | 29.1 µM [rising, single point] | 33.6 |  |
| O=C(NCc1ccc2c(c1)OCO2)c1cccc(S(=O)(=O)N2CCCC2)c1 |  | 12.4 | 29.1 µM [rising, single point] |
| O=S(=O)(NCc1ccccn1)c1ccc(F)cc1 | 4.11 µM [falling, full curve, poor fit] | -40.2 | 5.8 µM [falling, partial curve] |
| O=c1c(Cc2ccccc2)c(O)ccn1Cc1ccc2c(c1)OCO2 |  | -1.23 |  |
| O=C(NNC(=O)c1cc2ccccc2cc1O)Nc1ccc(Br)cc1 |  | -20.3 |  |
| COc1ccc(NC(=O)CN(C)C(=O)CNC(=O)c2cccs2)cc1 |  | -8.84 | 20.6 µM [falling, single point] |

| Structure (SMILES) | AC50 [1] | cell number change [%] | AC50 [2] |
| --- | --- | --- | --- |
| COc1ccccc1CN(C)C(=O)c1cc(-c2cccs2)nc2ccccc12 |  |  | 5.62 µM [rising, single point] |
| CC(C)CC(NS(=O)(=O)c1ccccc1S(=O)(=O)NC(CC(C)C)C(=O)O)C(=O)O (stereo not drawn) | 0.0206 µM [rising, full curve, poor fit] | 30.1 | 18.4 µM [falling, single point] |
| COc1ccc(C2CC(c3ccccc3)=NN2c2ccc(N)cc2)cc1 (stereo not drawn) |  | 20.9 | 4.11 µM [rising, partial curve] |
| COc1ccc(N(CC(=O)Nc2cccc3ccccc23)S(C)(=O)=O)c(OC)c1 |  | 16.8 | 29.1 µM [rising, single point] |
| CCN(CC)S(=O)(=O)c1ccc(-c2nnc(SCC(=O)c3ccc(OC)cc3)o2)cc1 | 3.66 µM [rising, single point] | 17.8 |  |
| CCCN1C/C(=C/c2cccc([N+](=O)[O-])c2)C(=O)/C(=C/c2cccc([N+](=O)[O-])c2)C1 | 0.58 µM [falling, partial curve] | -33.7 | 13 µM [falling, partial curve] |
| COc1cccc(N2C(=O)CC(N3CCC(c4nc5ccccc5[nH]4)CC3)C2=O)c1 (stereo not drawn) |  | -6 | 0.0517 µM [falling, full curve, poor fit] |
| Cc1ccc(COn2c(-c3ccc(Cl)cc3Cl)nc3ncccc32)cc1 |  | -5.31 |  |
| COc1ccc(NC(=O)CN(C)C(=O)c2ccccc2CCc2ccccc2)cc1 | 16.4 µM [rising, partial curve] | 59.4 |  |
| CC1CCCN(C(=O)COC(=O)CNC(=O)c2ccc(Br)cc2)C1 (stereo not drawn) |  | -24.9 | 0.092 µM [falling, full curve, poor fit] |
| O=C(Nc1ccc2nc(-c3ccccc3)oc2c1)c1ccco1 |  | 6.36 | 2.59 µM [rising, partial curve] |
| Cc1ccc2nc(COc3ccc(Cl)cc3)cc(=O)n2c1 |  | 15.2 |  |
| COCCSc1nnc(NC(=O)COC)s1 |  |  | 4.61 µM [falling, partial curve] |
| COc1ccc(C2=NN(C(=O)c3cccc([N+](=O)[O-])c3)C(c3cccc([N+](=O)[O-])c3)C2)cc1 (stereo not drawn) | 1.46 µM [rising, partial curve] |  | 0.58 µM [rising, full curve, poor fit] |
| Cc1ccc(O)c(C(=O)c2cnn(C(=O)c3cccc(S(=O)(=O)N(C)C)c3)c2)c1 |  | 21.9 |  |
| Cc1ccc(NC(=O)OCc2cn(-c3ccc(Cl)cc3)nn2)cc1 |  | -45.5 |  |
| Cc1nn(-c2ccccn2)c2c1C(c1ccsc1)C1=C(CCCC1=O)N2 (stereo not drawn) |  | 0.609 | 0.0651 µM [rising, full curve] |
| O=C(O)C1C2CCC(O2)C1C(=O)Nc1ccccc1Br (stereo not drawn) |  | 2.38 | 29.1 µM [rising, single point] |
| COc1cc2[nH]c(=S)nc(NCc3ccccn3)c2cc1OC |  | -10.5 | 0.00461 µM [falling, full curve, poor fit] |

Three records picked at random from the list so far:

| Structure (SMILES) | AC50 [1] | cell number change [%] | AC50 [2] |
| --- | --- | --- | --- |
| CC1CCCN(C(=O)COC(=O)CNC(=O)c2ccc(Br)cc2)C1 (stereo not drawn) |  | -24.9 | 0.092 µM [falling, full curve, poor fit] |
| COc1cccc(N2C(=O)CC(N3CCC(c4nc5ccccc5[nH]4)CC3)C2=O)c1 (stereo not drawn) |  | -6 | 0.0517 µM [falling, full curve, poor fit] |
| CCN(CC)S(=O)(=O)c1ccc(-c2nnc(SCC(=O)c3ccc(OC)cc3)o2)cc1 | 3.66 µM [rising, single point] | 17.8 |  |
